# Measurements taken from PubChem BioAssay AID2685 (National Center for Advancing Translational Sciences (NCATS), 2010).
# Some of the results follow. These are further read-outs of the screen, such as a control signal, another cell line or another target. No call is given for them. Most of these compounds were active or inconclusive in the main read-out, so they are no random draw. Words in brackets tell the shape of the fitted curve; partial curves, single points and poor fits give uncertain potencies.
# Test: qHTS Assay for Lipid Storage Modulators in Drosophila S3 Cells;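 on cell number change: cells counted by Cell Tracker Red CMTPX staining in the red channel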
# Conditions: BODIPY lipid droplet fluorescence, 18-24 h; for cell number change: measured here: cell count max response, cells fed with added oleic acid
# Method in brief: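 Drosophila S3 cells got compounds at several concentrations plus oleic acid (400 uM solution). Laser-scanning cytometry with 488 nm excitation read lipid droplets at 500-530 nm and cells at 575-640 nm. Percent activity was relative to 20 uM Triacsin C.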
# [1] = measured here: cell number channel AC50, cells fed with added oleic acid
# [2] = measured here: lipid fluorescence (Fed channel) AC50, cells fed with added oleic acid
SMILES,cell number change,AC50 [1],AC50 [2]
CC(C)CCNc1nc(N2CCCC2)c2c(c1C#N)CCN(C)C2,40.7%,"1.64 µM [rising, partial curve]",
Cc1cc(C)c2ccc(=O)n(CC(=O)N/N=C/c3ccccc3Cl)c2n1,33.5%,"0.00461 µM [rising, full curve, poor fit]",
COc1ccc2c(CC(=O)NCCN3C(=O)S/C(=C\c4cccnc4)C3=O)coc2c1,-141%,"29.1 µM [falling, single point]","29.1 µM [falling, single point]"
O=C(N/N=C/c1ccc(Br)s1)c1ccc([N+](=O)[O-])cc1,,"1.64 µM [rising, partial curve]","2.31 µM [rising, partial curve]"
O=C(Nc1ccc(Cl)c(Cl)c1)N1CC=CCC1,3.31%,,
CC1(C)CC(NC(=O)COc2ccc(Br)cc2Cl)CC(C)(C)N1,36.4%,"29.1 µM [rising, single point]","29.1 µM [rising, single point]"
O=C(CS(=O)(=O)c1ccccc1)N1CCN(c2ccccc2)CC1,-50%,"16.4 µM [falling, single point]",
CN(C)c1ccc(N=c2sc3ccccc3n2C)cc1,-57%,"20.6 µM [falling, single point]",
CC(C)Cc1cc(C(=O)Nc2cccc(O)c2)no1,-11.4%,"0.164 µM [falling, full curve, poor fit]","29.1 µM [falling, single point]"
CCN(CC)CCNC1=NCCn2c1cc1cc(OC)ccc12,-105%,"25.9 µM [falling, partial curve]",
COc1c(C)cccc1C(=O)Nc1ccc(N2CCN(S(C)(=O)=O)CC2)cc1,18.7%,,"0.164 µM [rising, full curve, poor fit]"
O=C(C1=COCCO1)N1CCN(C(c2ccccc2)c2ccccc2)CC1,-1.48%,,
CC1CC(C)CN(C(=O)CSc2nc(N)cc(=O)[nH]2)C1 (stereo not given),-5.41%,,
Cc1nnc2c(NCC(C)c3ccccc3)nc3ccccc3n12 (stereo not given),2.84%,,
CN(CC(=O)Nc1ccc(F)cc1)C(=O)CNC(=O)C1CCCCC1,1.48%,,"29.1 µM [rising, single point]"
COc1cccc(C2/C(=C(/O)c3cnn(-c4ccccc4)c3C)C(=O)C(=O)N2CCN(C)C)c1OC (stereo not given),17.3%,"1.84 µM [rising, partial curve, poor fit]","6.51 µM [rising, single point]"
O=C(/C=C/c1ccc(Br)cc1)NCc1cccs1,-7.06%,,"5.17 µM [falling, full curve]"
Cc1ccc(COC(=O)Cc2coc3cc(O)ccc23)cc1,18.8%,,"0.116 µM [rising, single point]"
NCc1c(O)ccc2ccccc12,14.3%,,"6.51 µM [rising, single point]"
Cc1onc(-c2ccccc2)c1C(=O)N1CCN(C)CC1,3.26%,,"2.31 µM [falling, full curve, poor fit]"

SMILES,cell number change,AC50 [1],AC50 [2]
Nc1ccc2c(c1)C(=O)C(=O)c1ccccc1-2,-66.3%,"7.31 µM [falling, partial curve]","7.31 µM [falling, partial curve]"
CCN(CC)c1ccc(S(=O)(=O)N2CCOCC2)cc1NC(=O)CSC(=S)N1CCCC1,-32.3%,"20.6 µM [falling, partial curve, poor fit]","29.1 µM [falling, single point]"
COc1ccc(OC)c(S(=O)(=O)Nc2cc(OC)c(Cl)cc2OC)c1,7.94%,"6.51 µM [rising, single point]","29.1 µM [rising, partial curve]"
CNc1nnc(-c2cc3cc(Cl)ccc3oc2=O)s1,-1.61%,,"1.64 µM [rising, partial curve]"
CCN(CC)C(=O)CCCSc1nnc(Nc2ccccc2F)s1,-33.7%,"32.6 µM [falling, single point]","7.31 µM [falling, partial curve, poor fit]"
COc1ccc(N(C(=O)c2snc(C(N)=O)c2N)C(C(=O)NCC2CCCO2)c2ccc3ncccc3c2)cc1OC (stereo not given),5.26%,,
Cc1ccc(N(CC(=O)NCc2ccc(F)cc2)C(=O)c2csnn2)cc1C,,"6.51 µM [rising, single point]",
CCC(=O)Nc1ccc(NC(=O)CSc2nnnn2C(C)C)cc1,89.8%,"13 µM [rising, partial curve]","6.51 µM [rising, single point]"
CN(C)CCN(C(=O)c1ccc2ccccc2c1)c1nc2c(F)cccc2s1,,,"29.1 µM [falling, single point]"
COc1cccc(OC)c1C(=O)NC(=S)NNC(=O)[C@H]1C[C@@H]1c1ccccc1,8.57%,"0.58 µM [falling, partial curve]","0.58 µM [falling, partial curve]"
CCn1c(COc2c(C)cccc2C)nnc1SCc1nc2ccccc2c(=O)[nH]1,,"1.46 µM [rising, partial curve, poor fit]","0.164 µM [rising, full curve, poor fit]"
COC(=O)c1cn(NC(=O)Cn2nc([N+](=O)[O-])c(Cl)c2C)c(=O)c2ccccc12,15.3%,,
Cc1ccccc1Cn1c2ccccc2c2cnn(CC(=O)NCCCN3CCN(C)CC3)c(=O)c21,-20.6%,,
COc1cc(OC)c(/C=N/NC(=O)c2ccc([N+](=O)[O-])cc2)cc1Br,-20.2%,"0.116 µM [falling, full curve, poor fit]","0.651 µM [falling, full curve]"
Cc1ccc(-c2nn(CCC(N)=O)c(=O)c3ccccc23)cc1,-16.7%,,"29.1 µM [falling, single point]"
CCCc1nc2ccccc2c(=O)n1/N=C/c1ccc(O)c(O)c1,-27.3%,,"29.1 µM [falling, single point]"
CCCSc1nc(SCC(=O)NCc2ccccc2)c2c3c(sc2n1)COC(C)(C)C3,,,"0.731 µM [rising, single point]"
O=S(=O)(c1ccc(Cl)cc1)N1CCN=C1SCc1ccc(Cl)c(Cl)c1,8.2%,,"16.4 µM [rising, partial curve]"
Cc1ccc(Nc2nc(N)c3ccccc3n2)cc1C,-2.11%,,"29.1 µM [falling, single point]"
CCn1c(=O)c(=O)[nH]c2cc(C(=O)NC(C)c3ccc(S(N)(=O)=O)cc3)ccc21 (stereo not given),,,"0.58 µM [rising, single point]"

SMILES,cell number change,AC50 [1],AC50 [2]
O=C(NC1CC1)c1sc2cc(Cl)ccc2c1Cl,-4.67%,"0.0116 µM [rising, full curve, poor fit]",
Cc1ccccc1OC(C)C(=O)Nc1ccc(S(=O)(=O)N2CCCC2)cc1 (stereo not given),-36.9%,"35.5 µM [falling, single point]","35.5 µM [falling, single point]"
CCCN(CC(=O)Nc1ccc(OC)c(OC)c1)CC(=O)Nc1ccc(F)c(F)c1F,39.9%,"29.1 µM [rising, single point]",
C=CC(=O)NC(C)(C)CCN1CCOCC1,-46.5%,"29.1 µM [falling, single point]","29.1 µM [falling, single point]"
COc1ccc(CN2CCN(CCc3ccccc3)C(CCO)C2)cc1Cn1cncn1 (stereo not given),18.9%,,"0.291 µM [rising, full curve, poor fit]"
O=C(Nc1cccc2ccccc12)N1N=CCC1c1ccccc1 (stereo not given),9.78%,,"29.1 µM [rising, single point]"
CCOC(=O)N/N=C/c1cc(C)n(-c2cccc3ccccc23)c1C,-26.7%,"0.00461 µM [rising, full curve, poor fit]",
Cc1ccc(NC(=O)CC(=O)c2ccccc2)cc1C,-3.17%,,"29.1 µM [rising, single point]"
CCOC(=O)C1=C(COC(=O)COc2ccc(OCC)cc2)NC(=O)NC1C (stereo not given),,,"5.17 µM [rising, single point]"
CCCN1CCC(NC(=O)Cc2ccccc2C)CC1,6.08%,,"6.51 µM [falling, single point]"
COc1ccc(S(=O)(=O)N2CCOCC2)cc1NC(=O)CCOc1ccc(C(C)(C)C)cc1,8.43%,,
COc1ccc(-c2cc(C(=O)NCCN3CCOCC3)c3ccccc3n2)c(OC)c1,,"0.58 µM [falling, partial curve]",
Cc1nn(Cc2cccc(C(N)=O)c2)c(C)c1Br,25%,,"0.461 µM [rising, full curve, poor fit]"
CN(CC(=O)NCc1ccccc1F)S(=O)(=O)c1ccc(Cl)cc1,43.2%,"20.6 µM [rising, single point]",
O=C(NCc1ccc(Cl)cc1)C(=O)c1cn(CC(=O)N2CCOCC2)c2ccccc12,-3.54%,,
O=C(Cn1c(COc2ccccc2)nc2ccccc21)Nc1cc(Cl)cc(Cl)c1,-15.5%,,"14.6 µM [falling, partial curve, poor fit]"
C=CCn1c(SC(C)C(=O)NC2(C#N)CCCCC2)nnc1-c1ccc(OC)cc1 (stereo not given),,,"5.17 µM [falling, partial curve]"
CCCOc1cccc(C(=O)NC(=S)Nc2cccc(C(F)(F)F)c2)c1,,,"6.51 µM [falling, single point]"
COc1cccc(NC(=O)c2ccc(-n3cnnn3)cc2)c1,5.13%,,
Cc1ccc(C)c(S(=O)(=O)Nc2ccc3oc(C)c(C(=O)O)c3c2)c1,15%,,"4.61 µM [rising, partial curve]"

# Compounds above that contain a cyano group:
SMILES,cell number change,AC50 [1],AC50 [2]
CC(C)CCNc1nc(N2CCCC2)c2c(c1C#N)CCN(C)C2,40.7%,"1.64 µM [rising, partial curve]",
C=CCn1c(SC(C)C(=O)NC2(C#N)CCCCC2)nnc1-c1ccc(OC)cc1 (stereo not given),,,"5.17 µM [falling, partial curve]"
